Publication PMC8152081
No constants are given. Whether binding was seen depends on the method and setting. Binding seen in cells or lysates may run through a third protein. Some entries that bind do so weakly or less than the wild type. For some of these results: Sequences can lack the tags named with a protein. Values belong to the molecule of their own block, whether it stands above or below them.

Chains of the proteins cited; added tags and fusions are not shown. Residues count along the entry.
UniProt Q15303, residues 26-1308: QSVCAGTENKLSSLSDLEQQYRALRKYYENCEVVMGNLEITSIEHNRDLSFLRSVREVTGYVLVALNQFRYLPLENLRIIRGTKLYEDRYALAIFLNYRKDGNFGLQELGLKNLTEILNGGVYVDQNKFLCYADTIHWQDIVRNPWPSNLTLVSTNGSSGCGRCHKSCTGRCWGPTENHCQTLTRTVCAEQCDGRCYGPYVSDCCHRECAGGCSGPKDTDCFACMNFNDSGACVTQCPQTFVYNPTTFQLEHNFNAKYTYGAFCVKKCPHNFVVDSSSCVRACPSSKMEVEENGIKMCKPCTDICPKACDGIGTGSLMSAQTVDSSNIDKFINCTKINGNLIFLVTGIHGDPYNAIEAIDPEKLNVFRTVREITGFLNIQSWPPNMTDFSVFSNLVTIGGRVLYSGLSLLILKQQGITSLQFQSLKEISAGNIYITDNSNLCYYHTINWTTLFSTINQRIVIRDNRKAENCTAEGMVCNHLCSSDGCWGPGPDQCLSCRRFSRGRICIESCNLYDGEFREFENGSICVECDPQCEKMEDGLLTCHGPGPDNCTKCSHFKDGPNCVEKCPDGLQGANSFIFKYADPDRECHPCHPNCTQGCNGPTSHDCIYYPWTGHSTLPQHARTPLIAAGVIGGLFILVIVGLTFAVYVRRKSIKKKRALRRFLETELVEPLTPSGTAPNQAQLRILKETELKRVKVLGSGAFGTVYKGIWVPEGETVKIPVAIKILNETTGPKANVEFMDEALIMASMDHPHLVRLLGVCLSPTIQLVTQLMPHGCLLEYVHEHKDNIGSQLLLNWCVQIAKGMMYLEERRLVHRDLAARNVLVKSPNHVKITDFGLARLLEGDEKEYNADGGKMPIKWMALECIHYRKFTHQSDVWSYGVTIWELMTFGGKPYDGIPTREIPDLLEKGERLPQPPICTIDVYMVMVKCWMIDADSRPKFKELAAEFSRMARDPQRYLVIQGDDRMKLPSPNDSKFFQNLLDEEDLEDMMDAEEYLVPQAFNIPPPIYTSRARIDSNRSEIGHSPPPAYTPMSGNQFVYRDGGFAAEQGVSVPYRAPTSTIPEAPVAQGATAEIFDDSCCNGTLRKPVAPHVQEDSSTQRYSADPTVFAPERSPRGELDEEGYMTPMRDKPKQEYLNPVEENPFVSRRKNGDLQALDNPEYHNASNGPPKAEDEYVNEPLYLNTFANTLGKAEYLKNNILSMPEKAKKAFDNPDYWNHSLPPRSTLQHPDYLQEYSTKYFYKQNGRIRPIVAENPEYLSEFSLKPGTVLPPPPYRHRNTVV

Assays:
[1] = biological target: T1, KITENIN (in Caco2 cells, immunoprecipitation step of the compound screen) (UniProt Q8TAA9); experiment: co-IP; immunoprecipitation in Caco2 CRC cells, step of the compound screen for compounds that interfere with the KITENIN–ErbB4 interaction
T1 sequence: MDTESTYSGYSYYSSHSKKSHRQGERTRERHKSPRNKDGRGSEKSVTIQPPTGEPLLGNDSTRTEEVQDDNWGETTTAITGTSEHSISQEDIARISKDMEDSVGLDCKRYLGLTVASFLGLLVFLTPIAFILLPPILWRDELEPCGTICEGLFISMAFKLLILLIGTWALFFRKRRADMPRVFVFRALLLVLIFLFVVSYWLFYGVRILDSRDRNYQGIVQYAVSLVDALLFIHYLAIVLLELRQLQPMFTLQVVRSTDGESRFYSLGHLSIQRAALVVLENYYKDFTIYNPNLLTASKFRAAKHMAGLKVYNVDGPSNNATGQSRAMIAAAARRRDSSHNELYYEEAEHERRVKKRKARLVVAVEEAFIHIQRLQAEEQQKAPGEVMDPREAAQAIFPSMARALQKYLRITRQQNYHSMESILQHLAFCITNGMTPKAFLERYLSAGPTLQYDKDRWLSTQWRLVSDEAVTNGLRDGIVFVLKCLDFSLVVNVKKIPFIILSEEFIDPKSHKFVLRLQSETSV

[2] = biological target: T2, KH-type splicing regulatory protein (KSRP) (human (endogenous; immunoprecipitations used 293 T, Caco2 or HCT116 lysates)) (UniProt Q92945); experiment: co-IP; IP with KSRP-specific antibody, blot for KITENIN; with or without DKC1125 (0.5 μM)
T2 sequence: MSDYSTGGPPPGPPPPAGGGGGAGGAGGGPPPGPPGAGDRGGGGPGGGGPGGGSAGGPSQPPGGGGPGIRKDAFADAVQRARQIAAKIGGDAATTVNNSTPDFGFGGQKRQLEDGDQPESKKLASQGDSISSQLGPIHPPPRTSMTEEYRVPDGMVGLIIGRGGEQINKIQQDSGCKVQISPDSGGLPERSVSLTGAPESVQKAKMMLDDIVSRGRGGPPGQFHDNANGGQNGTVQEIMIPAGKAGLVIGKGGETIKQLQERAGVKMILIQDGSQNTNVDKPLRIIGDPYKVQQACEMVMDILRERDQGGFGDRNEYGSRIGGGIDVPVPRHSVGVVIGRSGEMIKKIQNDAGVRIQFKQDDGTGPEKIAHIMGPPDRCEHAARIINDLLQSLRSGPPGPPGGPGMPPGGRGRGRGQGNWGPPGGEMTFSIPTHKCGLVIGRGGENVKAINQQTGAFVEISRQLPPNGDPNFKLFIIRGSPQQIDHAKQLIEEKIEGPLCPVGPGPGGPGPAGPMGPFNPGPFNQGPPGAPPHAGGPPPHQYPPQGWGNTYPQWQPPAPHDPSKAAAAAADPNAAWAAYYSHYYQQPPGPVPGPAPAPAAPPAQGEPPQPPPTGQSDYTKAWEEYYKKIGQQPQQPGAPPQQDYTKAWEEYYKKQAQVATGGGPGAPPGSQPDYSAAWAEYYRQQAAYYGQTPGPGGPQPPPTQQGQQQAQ

[3] = biological target: T3, full-length KSRP-myc (WT) (UniProt Q92945); experiment: co-IP; Caco2 cells transfected with myc-tagged KSRP (WT, Δ12, Δ34, ΔC) and GFP-tagged RACK1 or V5-tagged KITENIN
T3 sequence: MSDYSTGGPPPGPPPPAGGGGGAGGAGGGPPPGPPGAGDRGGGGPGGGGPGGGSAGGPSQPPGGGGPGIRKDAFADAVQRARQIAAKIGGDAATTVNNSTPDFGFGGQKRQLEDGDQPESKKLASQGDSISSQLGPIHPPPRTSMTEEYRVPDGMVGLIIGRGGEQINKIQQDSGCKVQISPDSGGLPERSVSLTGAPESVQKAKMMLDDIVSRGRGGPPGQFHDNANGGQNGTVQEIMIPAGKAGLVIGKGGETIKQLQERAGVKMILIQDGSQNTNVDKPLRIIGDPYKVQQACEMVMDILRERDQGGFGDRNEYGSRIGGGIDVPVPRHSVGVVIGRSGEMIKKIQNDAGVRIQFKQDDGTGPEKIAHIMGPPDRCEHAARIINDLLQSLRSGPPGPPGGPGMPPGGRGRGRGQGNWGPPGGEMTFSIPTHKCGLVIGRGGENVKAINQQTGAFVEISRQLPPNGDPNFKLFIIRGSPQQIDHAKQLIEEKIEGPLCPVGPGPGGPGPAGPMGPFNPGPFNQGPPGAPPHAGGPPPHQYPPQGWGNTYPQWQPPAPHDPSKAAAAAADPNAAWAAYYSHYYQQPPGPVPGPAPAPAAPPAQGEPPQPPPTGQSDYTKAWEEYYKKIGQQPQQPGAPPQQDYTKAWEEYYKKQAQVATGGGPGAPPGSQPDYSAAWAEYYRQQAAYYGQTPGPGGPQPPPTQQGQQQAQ

[4] = biological target: T4, KH-type splicing regulatory protein (KSRP), endogenous in Caco2 cells (human (endogenous in Caco2)) (UniProt Q92945); experiment: co-IP; Caco2 cells stably expressing EV or KITENIN-V5, cytoplasmic–nuclear fractionation, vehicle or DKC1125 (0.5 μM); precipitates immunoblotted to detect KSRP-Dvl binding
T4 sequence: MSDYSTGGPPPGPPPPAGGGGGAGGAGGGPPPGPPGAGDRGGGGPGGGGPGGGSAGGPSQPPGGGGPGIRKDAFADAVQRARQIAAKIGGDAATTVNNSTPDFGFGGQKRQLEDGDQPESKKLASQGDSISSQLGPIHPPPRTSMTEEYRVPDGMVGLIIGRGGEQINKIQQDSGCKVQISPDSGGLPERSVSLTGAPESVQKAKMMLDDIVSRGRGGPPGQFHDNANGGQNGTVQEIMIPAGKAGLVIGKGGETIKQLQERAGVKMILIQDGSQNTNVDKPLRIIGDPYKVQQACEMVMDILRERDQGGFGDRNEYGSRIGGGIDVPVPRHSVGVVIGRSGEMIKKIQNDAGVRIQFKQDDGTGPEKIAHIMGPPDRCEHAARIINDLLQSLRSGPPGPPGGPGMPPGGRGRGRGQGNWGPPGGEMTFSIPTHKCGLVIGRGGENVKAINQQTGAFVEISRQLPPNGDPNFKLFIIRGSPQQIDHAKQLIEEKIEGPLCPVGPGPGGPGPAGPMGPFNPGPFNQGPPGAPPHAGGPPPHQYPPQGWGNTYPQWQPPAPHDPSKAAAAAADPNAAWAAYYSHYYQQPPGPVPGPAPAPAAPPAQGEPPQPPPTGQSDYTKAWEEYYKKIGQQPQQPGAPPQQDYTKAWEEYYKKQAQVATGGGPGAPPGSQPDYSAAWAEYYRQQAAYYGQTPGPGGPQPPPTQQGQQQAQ

binding [1]: binds
Molecule: ErbB4 (in Caco2 cells, immunoprecipitation step of the compound screen) (from UniProt Q15303 26-1308) (receptor)

binding [2]: binds
B1: KITENIN (KAI1 C-terminal interacting tetraspanin, Vangl1) (protein, UniProt Q8TAA9 1-524)
chain: MDTESTYSGYSYYSSHSKKSHRQGERTRERHKSPRNKDGRGSEKSVTIQPPTGEPLLGNDSTRTEEVQDDNWGETTTAITGTSEHSISQEDIARISKDMEDSVGLDCKRYLGLTVASFLGLLVFLTPIAFILLPPILWRDELEPCGTICEGLFISMAFKLLILLIGTWALFFRKRRADMPRVFVFRALLLVLIFLFVVSYWLFYGVRILDSRDRNYQGIVQYAVSLVDALLFIHYLAIVLLELRQLQPMFTLQVVRSTDGESRFYSLGHLSIQRAALVVLENYYKDFTIYNPNLLTASKFRAAKHMAGLKVYNVDGPSNNATGQSRAMIAAAARRRDSSHNELYYEEAEHERRVKKRKARLVVAVEEAFIHIQRLQAEEQQKAPGEVMDPREAAQAIFPSMARALQKYLRITRQQNYHSMESILQHLAFCITNGMTPKAFLERYLSAGPTLQYDKDRWLSTQWRLVSDEAVTNGLRDGIVFVLKCLDFSLVVNVKKIPFIILSEEFIDPKSHKFVLRLQSETSV

binding [3]: binds
B2: KITENIN-V5 (V5-tagged KITENIN) (protein, UniProt Q8TAA9 1-524)
chain: MDTESTYSGYSYYSSHSKKSHRQGERTRERHKSPRNKDGRGSEKSVTIQPPTGEPLLGNDSTRTEEVQDDNWGETTTAITGTSEHSISQEDIARISKDMEDSVGLDCKRYLGLTVASFLGLLVFLTPIAFILLPPILWRDELEPCGTICEGLFISMAFKLLILLIGTWALFFRKRRADMPRVFVFRALLLVLIFLFVVSYWLFYGVRILDSRDRNYQGIVQYAVSLVDALLFIHYLAIVLLELRQLQPMFTLQVVRSTDGESRFYSLGHLSIQRAALVVLENYYKDFTIYNPNLLTASKFRAAKHMAGLKVYNVDGPSNNATGQSRAMIAAAARRRDSSHNELYYEEAEHERRVKKRKARLVVAVEEAFIHIQRLQAEEQQKAPGEVMDPREAAQAIFPSMARALQKYLRITRQQNYHSMESILQHLAFCITNGMTPKAFLERYLSAGPTLQYDKDRWLSTQWRLVSDEAVTNGLRDGIVFVLKCLDFSLVVNVKKIPFIILSEEFIDPKSHKFVLRLQSETSV

binding [4]: binds
B3: Dishevelled 1 (Dvl1), endogenous in Caco2 cells (protein, UniProt O14640 1-695)
chain: MAETKIIYHMDEEETPYLVKLPVAPERVTLADFKNVLSNRPVHAYKFFFKSMDQDFGVVKEEIFDDNAKLPCFNGRVVSWLVLAEGAHSDAGSQGTDSHTDLPPPLERTGGIGDSRPPSFHPNVASSRDGMDNETGTESMVSHRRERARRRNREEAARTNGHPRGDRRRDVGLPPDSASTALSSELESSSFVDSDEDGSTSRLSSSTEQSTSSRLIRKHKRRRRKQRLRQADRASSFSSITDSTMSLNIVTVTLNMERHHFLGISIVGQSNDRGDGGIYIGSIMKGGAVAADGRIEPGDMLLQVNDVNFENMSNDDAVRVLREIVSQTGPISLTVAKCWDPTPRSYFTVPRADPVRPIDPAAWLSHTAALTGALPRYGTSPCSSAVTRTSSSSLTSSVPGAPQLEEAPLTVKSDMSAVVRVMQLPDSGLEIRDRMWLKITIANAVIGADVVDWLYTHVEGFKERREARKYASSLLKHGFLRHTVNKITFSEQCYYVFGDLCSNLATLNLNSGSSGTSDQDTLAPLPHPAAPWPLGQGYPYQYPGPPPCFPPAYQDPGFSYGSGSTGSQQSEGSKSSGSTRSSRRAPGREKERRAAGAGGSGSESDHTAPSGVGSSWRERPAGQLSRGSSPRSQASATAPGLPPPHPTTKAYTVVGGPPGGPPVRELAAVPPELTGSRQSFQKAMGNPCEFFVDIM
